The list shows a part of the results. For some assays here: The source does not settle which construct or isoform was used.

By UniProt entry, the sequences of proteins in these tests, tags left out.
UniProt P30530, whole entry: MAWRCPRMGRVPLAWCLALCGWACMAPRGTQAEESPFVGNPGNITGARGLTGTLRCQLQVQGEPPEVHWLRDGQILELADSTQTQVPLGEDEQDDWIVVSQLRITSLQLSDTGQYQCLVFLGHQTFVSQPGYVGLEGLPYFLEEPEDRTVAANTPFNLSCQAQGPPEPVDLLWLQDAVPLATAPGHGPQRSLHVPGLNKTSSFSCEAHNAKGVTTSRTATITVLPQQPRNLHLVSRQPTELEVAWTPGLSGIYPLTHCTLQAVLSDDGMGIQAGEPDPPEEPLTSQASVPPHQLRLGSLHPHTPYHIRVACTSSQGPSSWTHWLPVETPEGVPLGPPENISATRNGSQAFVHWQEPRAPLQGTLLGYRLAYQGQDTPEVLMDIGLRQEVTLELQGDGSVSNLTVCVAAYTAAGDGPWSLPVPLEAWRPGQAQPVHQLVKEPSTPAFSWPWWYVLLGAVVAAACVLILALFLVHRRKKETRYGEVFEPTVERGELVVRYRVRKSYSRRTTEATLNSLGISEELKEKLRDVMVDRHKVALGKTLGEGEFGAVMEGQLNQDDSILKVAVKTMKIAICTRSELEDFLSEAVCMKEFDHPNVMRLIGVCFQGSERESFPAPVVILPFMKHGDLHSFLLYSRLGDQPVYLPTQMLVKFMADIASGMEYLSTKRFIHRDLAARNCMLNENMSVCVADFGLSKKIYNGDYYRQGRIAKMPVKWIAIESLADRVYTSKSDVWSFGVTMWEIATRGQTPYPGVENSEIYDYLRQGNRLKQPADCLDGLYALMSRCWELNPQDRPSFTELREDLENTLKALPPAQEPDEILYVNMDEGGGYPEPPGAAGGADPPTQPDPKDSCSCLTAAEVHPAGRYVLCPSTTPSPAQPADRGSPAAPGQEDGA

Common to all, as to assay: protein microarray (ProtoArray v5.0), streptavidin-Alexa Fluor 647
Common to all, as to conditions: 3'-biotin; 20 mM Tris (pH 7.5), 5 mM MgCl2, 100 mM KCl, 0.1% Tween-20, A/T-rich and random oligonucleotide blockers; temperature not stated; high values mean tight binding

Assay [1] concerns ATPBD4 (human).
Assay [2] deals with ATPIF1 (human).
Assay [3] concerns ATXN3 (human).
Assay [4] addresses AXL (UniProt P30530).
The target of assay [5] is T1, AYTL1 (UniProt Q7L5N7).
T1 sequence: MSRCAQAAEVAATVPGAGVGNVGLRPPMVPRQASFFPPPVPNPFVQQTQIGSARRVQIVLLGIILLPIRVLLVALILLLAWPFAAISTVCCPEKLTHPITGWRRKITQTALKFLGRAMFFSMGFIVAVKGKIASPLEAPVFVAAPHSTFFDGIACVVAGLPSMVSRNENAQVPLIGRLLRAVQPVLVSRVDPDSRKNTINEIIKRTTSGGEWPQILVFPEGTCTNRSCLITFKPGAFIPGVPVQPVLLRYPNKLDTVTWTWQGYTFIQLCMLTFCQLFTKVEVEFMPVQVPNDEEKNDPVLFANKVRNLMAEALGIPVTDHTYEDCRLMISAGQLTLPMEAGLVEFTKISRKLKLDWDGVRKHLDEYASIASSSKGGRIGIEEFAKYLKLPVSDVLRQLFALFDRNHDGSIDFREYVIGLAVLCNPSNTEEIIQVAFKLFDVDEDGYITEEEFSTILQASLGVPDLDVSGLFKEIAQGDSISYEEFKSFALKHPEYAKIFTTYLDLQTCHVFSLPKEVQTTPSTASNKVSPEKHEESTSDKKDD

The subject of assay [6] is AZIN1 (human).
The subject of assay [7] is Acetyl-coenzyme A synthetase, cytoplasmic (human).
The test system of assay [8] is Acetyl-coenzyme A transporter 1 (human).
Assay [9] deals with Actin-related protein 2/3 complex subunit 4 (human).
Assay [10] has as its system Activator of 90 kDa heat shock protein ATPase homolog 2 (human).
In assay [11] the test system is Activin receptor type-2B (human).
In assay [12] the test system is Acyl carrier protein, mitochondrial (human).
For assay [13], the system named is Acylphosphatase-1 (human).
The subject of assay [14] is Adenylate kinase isoenzyme 2, mitochondrial (human).
Assay [15] deals with Adenylate kinase isoenzyme 4, mitochondrial (human).
Assay [16] relates to Adipophilin (human).
Assay [17] has as its system Alcohol dehydrogenase class 4 mu/sigma chain (human).
For assay [18], the system named is Aldehyde dehydrogenase family 16 member A1 (human).
Assay [19] deals with Aldehyde dehydrogenase family 3 member B1 (human).
Assay [20] concerns Aldehyde dehydrogenase family 8 member A1 (human).

Consider “GGGAGGCTGAGGCAGG [G4-1 biotinylated (PQS2)]”, for which the binding signal was -0.328 z-score in assay [1]; -0.274 z-score in assay [2]; -0.346 z-score in assay [3]; -0.324 z-score in assay [4]; -0.294 z-score in assay [5]; -0.307 z-score in [6]. In addition, the binding signal in assay [7] was -0.323 z-score; in [8], -0.335 z-score; in assay [9] it was -0.303 z-score; in assay [10], -0.313 z-score; in [11], -0.291 z-score; in [12] it was -0.347 z-score. Further, the binding signal in assay [13] is -0.285 z-score; in assay [14], -0.328 z-score; in assay [15], -0.353 z-score; in assay [16], -0.323 z-score; in assay [17] it was -0.325 z-score; in assay [18] it was -0.351 z-score. Further, the binding signal is -0.339 z-score in assay [19] and -0.357 z-score in assay [20].

These data come from article PMC5996148.
